Source: PubChem BioAssay AID1347075 (National Center for Advancing Translational Sciences (NCATS), 2019)
Out of some 400,000 compounds screened, about 5,500 (1.4%) were called active. The shares of active, inactive and inconclusive entries below differ from those in the screen. The call rests on the fitted dose curve; in most records, active means well fitted cell-killing curve with a large enough effect; inconclusive means small, poorly fitted or top-dose-only effect, or effect the other way; inactive means flat fitted curve, though single readings scatter. Where the call is inconclusive, the potency comes from a doubtful curve fit.
On the % scale 0 is the no-effect control and ±100 the full control effect; potency means the concentration at half of the fitted maximal effect.

Assay: qHTS assay for MDR1-selective chemotherapeutics: Primary screen using the parental adenocarcinoma cell KB-3-1; further: nearly all actives have a fitted effect of over 60% in size
Details: KB-3-1 viability, CellTiter-Glo ATP luminescence, 72 h; activity change, negative = cytotoxic: at 46.1 µM (top of the series)
Summary of the method: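 KB-3-1 cells, DMEM (no phenol red) + 10% FBS; compound by pin transfer, 72 h, 37 °C. Readout: CellTiter-Glo luminescence after 10 min. Data normalized, curve-fitted.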
In the case of `CCCCN(CC)CCCNC(=O)c1cc2c(=O)[nH]c3ccccc3c2s1`, the Potency is reported as inconclusive: 9.2 µM [cytotoxic, partial curve, poor fit].
For `C=CCC(C(=O)Oc1c(C(C)(C)C)cc(C)cc1C(C)(C)C)c1ccccc1` (configuration not stated), the Potency was inconclusive: 23.1 µM [rising, single point].
For `Cc1c(-c2nc(-c3ccncc3)no2)cccc1[N+](=O)[O-]`, the Potency was inconclusive: 29.1 µM [cytotoxic, single point].
With `COc1ccc(NC2=NCC(Cc3ccc(Br)cc3)S2)cc1` (configuration not stated) the Potency was active: 23.1 µM.
In the case of `CCCC(C)NC(=O)Cn1c(=O)c2c(ncn2CCC(C)C)n(Cc2ccccc2)c1=O` (configuration not stated), the Potency is reported as inconclusive: 29.1 µM [cytotoxic, single point].
In the case of `CCC[N+]1(CC#CCC(c2ccccc2)c2ccccc2)CCCCC1`, the Potency is reported as active: 2.59 µM.
For `CCOc1cc(CNCc2ccccn2)ccc1OCC(=O)NC(C)(C)C`, the Potency was inconclusive: 29.1 µM [cytotoxic, single point].
For `COc1ccc(OC)c(CCNC(=O)c2csc3c2CCCCC3)c1`, the Potency was inconclusive: 29.1 µM [cytotoxic, single point].
In the case of `COc1cc(OC)nc(Nc2nc(C(N)Cc3ccc(C(F)(F)F)cc3)cs2)n1` (configuration not stated), the Potency is reported as inconclusive: 29.1 µM [cytotoxic, single point].
In the case of `CCOC(=O)C1CCN(C(=O)c2ccc3c(=O)n4nc(Nc5cc(C)ccc5C)sc4nc3c2)CC1`, the activity change, negative = cytotoxic is reported as inconclusive: -7.07%.
With `CCOc1cccc(C2c3c(-c4cc(C)ccc4O)n[nH]c3C(=O)N2Cc2ccco2)c1` (configuration not stated) the Potency was inconclusive: 29.1 µM [cytotoxic, single point].
In the case of `CCOC(=O)c1c(C)c(C(=O)NC(C)COC)c(C)n1CC` (configuration not stated), the “activity change, negative = cytotoxic” value is reported as inactive: -2.02%.
For `Cc1ccc(CNC(=O)c2cc3c(=O)n(Cc4cccnc4)ccc3nc2C)cc1`, the Potency was inconclusive: 16.4 µM [cytotoxic, partial curve].
In the case of `Cc1nc(NCCN2CCOCC2)c2oc3ccccc3c2n1`, the “activity change, negative = cytotoxic” value is reported as inactive: 0.558%.
With `Cc1cc(C(C)(C)CC(C)(C)C)ccc1OCCOCC[N+](C)(C)Cc1ccccc1` the Potency was inconclusive: 29.1 µM [cytotoxic, single point].
In the case of `O=C(Nc1nnc(-c2ccco2)o1)c1cccc(N2C(=O)CCC2=O)c1`, the “activity change, negative = cytotoxic” value is reported as inactive: -0.595%.
In the case of `CCCCc1ccc(Nc2nc(CCC)cc(=O)[nH]2)cc1`, the Potency is reported as inconclusive: 20.6 µM [cytotoxic, single point].
In the case of `COc1cccc(C(O)c2ncc(-c3cccc4ccccc34)[nH]2)c1` (configuration not stated), the Potency is reported as inconclusive: 29.1 µM [cytotoxic, single point].
In the case of `Cc1ccccc1CN1C(=O)C(O)(CC(=O)c2ccncc2)c2ccccc21` (configuration not stated), the Potency is reported as inconclusive: 20.6 µM [cytotoxic, single point].
For `CC(C)(C)NC(=O)NC(=O)COC(=O)C1CC(=O)N(Cc2ccccc2)C1` (configuration not stated), the “activity change, negative = cytotoxic” value was inactive: -1.01%.
In the case of `COc1ccc(/C=N/NC(=O)COc2ccccc2-c2ccccc2)cc1`, the Potency is reported as active: 1.16 µM.
For `CCOC(=O)C(/C=C(\C#N)C(=O)OCC)=C(/N)N1CCN(c2ccc(Cl)cc2)CC1`, the Potency was inconclusive: 29.1 µM [cytotoxic, partial curve, poor fit].
In the case of `CCC(CO)NS(=O)(=O)c1cc(-c2nn(C)c(=O)c3ccccc23)ccc1C` (configuration not stated), the “activity change, negative = cytotoxic” value is reported as inactive: -3.22%.
In the case of `C/C(=C\c1ccc2c(c1)OCO2)C(=O)c1c(C)cc(C)[nH]c1=O`, the “activity change, negative = cytotoxic” value is reported as inactive: 8.66%.
In the case of `CN(/N=C/c1cc(Cl)cc(Cl)c1O)C(=S)NC(C)(C)C`, the Potency is reported as inconclusive: 29.1 µM [cytotoxic, single point].
In the case of `CCc1ccc(NC(=O)Cn2c3[n+](c4c(F)c(F)ccc42)CCCCC3)cc1`, the Potency is reported as inconclusive: 23.1 µM [cytotoxic, partial curve].
For `CN(C)c1ccc(C=C2C(=O)c3ccccc3C2=O)cc1`, the Potency was inconclusive: 29.1 µM [rising, single point].
In the case of `N=C1S/C(=C\c2ccc(-c3cccc(Cl)c3)o2)C(=O)N1c1nccs1`, the Potency is reported as active: 7.31 µM.
In the case of `COC(=O)c1ccc(NC(=O)NCCn2nnc3cc(S(=O)(=O)N(C)C)ccc32)cc1`, the “activity change, negative = cytotoxic” value is reported as inactive: 2.16%.
In the case of `FC(F)Oc1ccc(NC(=S)NCc2ccccc2)cc1`, the Potency is reported as inconclusive: 11.6 µM [cytotoxic, partial curve, poor fit].
For `COc1ccc(C(=O)N/N=C/c2ccccc2OC(=O)c2ccccc2)cc1`, the Potency was active: 18.4 µM.
With `CCNC(=O)c1cc2c(c(-c3cccc(-c4cncnc4)c3)n1)[C@@H](CCO)N(C(C)=O)C2` the “activity change, negative = cytotoxic” value was inactive: 19%.
For `COc1ccc(NC(=O)C2(C)Cc3c(-c4cccc(NC(C)=O)c4)ccnc3O2)cc1` (configuration not stated), the Potency was inconclusive: 2.06 µM [cytotoxic, partial curve, poor fit].
With `CCOc1ccccc1C(=O)Nc1c(C(=O)Nc2ccc(F)cc2)oc2ccccc12` the Potency was inconclusive: 2.31 µM [cytotoxic, partial curve, poor fit].
For `COc1ccccc1C1NC(c2ccccc2OC)C(C)C(=O)C1C` (configuration not stated), the Potency was inconclusive: 16.4 µM [cytotoxic, partial curve, poor fit].
With `Cc1cc(N2CCC(C(=O)N3CCN(c4cccc(C)c4C)CC3)CC2)n2ncnc2n1` the “activity change, negative = cytotoxic” value was inactive: 13.4%.
With `O=C(CCS(=O)(=O)c1ccc(F)cc1)Nc1nnc(-c2ccco2)o1` the “activity change, negative = cytotoxic” value was inactive: 0.535%.
For `O=Cc1ccc(Sc2nnc(-c3ccccc3)o2)c([N+](=O)[O-])c1`, the Potency was inconclusive: 18.4 µM [cytotoxic, single point].
For `Cc1sc2nc(C3CC3)nc(N3CCN(C(=O)c4ccc(F)cc4)CC3)c2c1C`, the “activity change, negative = cytotoxic” value was inactive: -18.7%.
With `COc1ccc(/C=N/Nc2cc(C)nc(N3CCOCC3)n2)cc1OC` the Potency was inconclusive: 2.59 µM [rising, full curve, poor fit].
With `CCc1ccc(NC(=S)Nc2cccc3cnccc23)cc1` the Potency was inconclusive: 29.1 µM [cytotoxic, single point].
For `COCC1CCCN(Cc2cn(Cc3ccccc3)nc2-c2cc3ccccc3o2)C1` (configuration not stated), the Potency was inconclusive: 29.1 µM [cytotoxic, single point].
For `Cn1nc(C(F)(F)F)c(/C=N/OC(=O)c2ccccc2Cl)c1SCc1ccccc1Cl`, the Potency was inconclusive: 29.1 µM [cytotoxic, single point].
With `CN1CCN(c2ccc([N+](=O)[O-])c(-n3nc(-c4ccccc4)c4ccccc4c3=O)c2)CC1` the Potency was inconclusive: 20.6 µM [cytotoxic, single point].
For `CN(C)c1ccc(-c2ccnc3c2CC(C)(C(=O)NCc2ccco2)O3)cc1` (configuration not stated), the Potency was inconclusive: 29.1 µM [cytotoxic, single point].
In the case of `Cc1cc(/C=C(\C#N)C(=O)Nc2ccccc2)c(C)n1-c1ccc(C(=O)O)cc1`, the “activity change, negative = cytotoxic” value is reported as inactive: -1.74%.
With `O=C(c1ccccc1)c1nn(-c2cccc(Cl)c2)ccc1=O` the “activity change, negative = cytotoxic” value was inactive: -4.69%.
In the case of `COc1ccc(C)cc1NC(=O)c1nnn(Cc2cccc(C(F)(F)F)c2)c1N`, the Potency is reported as inconclusive: 11.6 µM [cytotoxic, partial curve, poor fit].
For `CCOc1ccc(OCc2ccc(C(=O)NC(C)(C)C)o2)cc1`, the Potency was inconclusive: 32.6 µM [cytotoxic, single point].
With `COc1ccc2oc(C(=O)OCC(=O)NCc3ccccc3OC)c(C)c2c1` the “activity change, negative = cytotoxic” value was inactive: -0.3%.
For `CCOc1ccc(-c2nnc(N3CCCCC3)c3ccccc23)cc1`, the Potency was inconclusive: 29.1 µM [cytotoxic, single point].
In the case of `Cc1ccc(C)c(N2CCN(S(=O)(=O)c3cc4c(cc3Cl)NC(=O)CO4)CC2)c1`, the Potency is reported as inconclusive: 20.6 µM [rising, single point].
With `COc1ccc(C2CC(c3ccccc3)=NN2C(=O)CN2CCN(Cc3ccccc3)CC2)cc1` (configuration not stated) the Potency was inconclusive: 23.1 µM [cytotoxic, single point].
For `COc1ccc(CCN(C)C(=O)c2cc(S(=O)(=O)NCc3ccccc3)ccc2C)cc1OC`, the Potency was inconclusive: 14.6 µM [cytotoxic, partial curve, poor fit].
With `CCOC(=O)C1=C(C)NC(C)=C(C(=O)OCC)C1C(=O)OCC(=O)NCc1ccccc1` the activity change, negative = cytotoxic was inconclusive: 0%.
With `COc1ccc(S(=O)(=O)N2CCc3ccccc32)cc1C(=O)N1CCOCC1` the “activity change, negative = cytotoxic” value was inactive: 0.41%.
In the case of `NS(=O)(=O)c1ccc(CNC(=O)CNC(=O)c2ccc(Br)o2)cc1`, the “activity change, negative = cytotoxic” value is reported as inactive: 13.8%.
With `Cc1c(Cl)cccc1NC(=O)CN(CCc1ccccc1)S(=O)(=O)c1ccccc1` the Potency was inconclusive: 29.1 µM [cytotoxic, single point].
In the case of `O=C(CN1C(=O)NC2(CCCC2)C1=O)NCCc1ccc(Cl)cc1Cl`, the Potency is reported as inconclusive: 1.46 µM [rising, full curve].
For `CC(C)CSc1ncnc2c1oc1nc3c(cc12)COC(C)(C)C3`, the Potency was inconclusive: 20.6 µM [cytotoxic, single point].
With `O=C(NCc1ccccc1)c1ccc(CSc2nc3cccnc3n2Cc2cccc(F)c2)cc1` the Potency was inconclusive: 18.4 µM [cytotoxic, single point].
In the case of `Cc1ccc(C(=O)c2cnc3cc4c(cc3c2S(=O)(=O)c2ccccc2)OCCO4)cc1`, the Potency is reported as inconclusive: 16.4 µM [cytotoxic, single point].
For `COc1cc2nc(C3CCC3)nc(N3CCN(c4ccccn4)CC3)c2cc1OC`, the Potency was inconclusive: 29.1 µM [cytotoxic, single point].
With `O=C(Nc1ccccc1)Nc1ccc(C(=O)N2CCCC2)cc1` the Potency was inconclusive: 18.4 µM [cytotoxic, partial curve, poor fit].
With `O=[N+]([O-])c1ccc(/C=C/c2ccnc3ccccc23)cc1` the Potency was inconclusive: 6.51 µM [cytotoxic, partial curve].
For `COc1cc2nc(C3CC3)n(NC(=O)c3ccc(F)cc3)c(=O)c2cc1OC`, the “activity change, negative = cytotoxic” value was inactive: -20.7%.
In the case of `CC(C)N1C(=O)CC2(CC[N+](C)(CCOC(=O)C(c3ccccc3)c3ccccc3)CC2)C1=O` (configuration not stated), the Potency is reported as inconclusive: 18.4 µM [rising, single point].
